Data published in patent publication US20240285634A1, “COMPOUND AND METHOD FOR TREATING CHEMOTHERAPY-ASSOCIATED GASTROINTESTINAL SIDE EFFECTS” (ONQUALITY PHARMACEUTICALS CHINA LTD., priority 2021, published 2024).
Where a name gives a salt, the structure may show the parent alone. Further values from the same series stand in other lists.

What was measured:
[1] = test system: Chemotherapeutic agent-caused constipation models of Balb/c mice; assay: Relieving effect on constipation caused by a chemotherapeutic agent (Examples 202-364); type: in vivo; conditions: compound intraperitoneal injection 150 mg/kg single, cycle 10 days
Text: Construction of mouse animal models: Chemotherapeutic agent-caused constipation models of Balb/c mice were constructed according to the administration mode and frequency of the chemotherapeutic agent as shown in Table 4. […] Thus, chemotherapeutic agent-caused constipation models of mice are very good models to mimic constipation caused by the chemotherapeutic agent.
Balb/c mice were fed for 1 week, and then divided into groups. The experiment was divided into a control group, a chemotherapeutic agent group, and a group of the compound as shown in Formula I, each of which comprised 10 mice, to perform the administration experiment, for which the administration dosage, mode, time and frequency were shown in Table 4. The control group: being injected or intragastrically administered with the same solvent as that used in the group of the compound as shown in Formula I (the administration mode and time were shown in Table 4), and then being injected or intragastrically administered with the same solvent as that used in the chemotherapeutic agent group (the administration mode was shown in Table 4); the chemotherapeutic agent group: being injected or intragastrically administered with the same solvent as that used in the group of the compound as shown in Formula I (the administration mode and time was shown in Table 4), and then being injected or intragastrically administered with the chemotherapeutic agent (the type, administration mode and dosage were shown in Table 4); the group of the compound as shown in Formula I: being injected or intragastrically administered with the compound as shown in Formula I (the administration mode and time was shown in Table 4), and then being administered with the chemotherapeutic agent (the administration mode and dosage were shown in Table 4).
The feces reduction rate was calculated with reference to the method of Ji Eun Kim (Lab Anim Res. 2016 December; 32(4): 231-240.). Feces reduction rate (%)=(the control group−the chemotherapeutic agent group or the group of the compound as shown in Formula I)/the control group*100%
It is regarded as effective remission when the feces reduction rate of mice in the group of the compound as shown in Formula I is reduced compared with that in the chemotherapeutic agent group.
The feces amount of mice within 3 hours was observed and recorded every day. At the end of the experiment, the number of mice in the group of the compound as shown in Formula I whose feces reduction rate was lower than that of mice in the chemotherapeutic agent group was recorded. Table 4 lists various animal experiment combinations of chemotherapeutic agents and the compound as shown in Formula I, as well as the corresponding experimental results.

[2] = test system: Chemotherapeutic agent-caused diarrhea models of Balb/c mice; assay: Relieving effect on diarrhea caused by a chemotherapeutic agent (Examples 1-201); type: in vivo
Text: Construction of mouse animal models: Chemotherapeutic agent-caused diarrhea models of Balb/c mice were constructed according to the administration mode and frequency of the chemotherapeutic agent as shown in Table 3. After administration for several days, mice developed different extents of diarrhea symptoms (as shown in FIG. 1), which were similar to the conditions in human. Thus, chemotherapeutic agent-caused diarrhea models of mice are very good models to mimic diarrhea in human caused by the chemotherapeutic agent.
Balb/c mice were fed for 1 week, and then divided into groups. The experiment was divided into a control group, a chemotherapeutic agent group, and a group of the compound as shown in Formula I, each of which comprised 10 mice, to perform the administration experiment, for which the administration dosage, mode, time and frequency were shown in Table 3. The control group: being injected or intragastrically administered with the same solvent as that used in the group of the compound as shown in Formula I (the injection mode and time were shown in Table 3), and then being injected or intragastrically administered with the same solvent as that used in the chemotherapeutic agent group (the administration mode was shown in Table 3); the chemotherapeutic agent group: being injected or intragastrically administered with the same solvent as that used in the group of the compound as shown in Formula I (the administration mode and time were shown in Table 3), and then being injected or intragastrically administered with the chemotherapeutic agent (the type, administration mode and dosage were shown in Table 3); the group of the compound as shown in Formula I: being injected or intragastrically administered with the compound as shown in Formula I (the administration mode and time were shown in Table 3), and then being administered with the chemotherapeutic agent (the administration mode and dosage were shown in Table 3).
The scoring of diarrhea can refer to the method of Akinobu Kurita (Cancer Chemother Pharmacol 2000; 46:211-20.), Grade 0: normal feces; Grade 1: mild diarrhea, the stools is slightly wet and soft; Grade 2: moderate diarrhea, loose stools and mild perianal contamination; Grade 3: severe diarrhea, watery stools and accompanied by severe perianal staining (see FIG. 1). It is regarded as effective remission when the diarrhea grading of mice in the group of the compound as shown in Formula I is reduced compared with the average diarrhea grading of mice in the chemotherapeutic agent group.
The diarrhea grading of mice was observed and recorded every day. At the end of the experiment, the number of mice in the group of the compound as shown in Formula I whose diarrhea grading was lower than that of mice in the chemotherapeutic agent group was recorded. Table 3 lists various animal experiment combinations of chemotherapeutic agents and the compound as shown in Formula I, as well as the corresponding experimental results. (Relative remission rate %=the number of mice in the group of the compound as shown in Formula I whose diarrhea has been effectively relieved/the total number of mice in the group of the compound as shown in Formula I*100%. The establishment rate of diarrhea model in the chemotherapeutic agent group was 50%-70%, that is, about 5-7 of 10 mice developed diarrhea during the experiment, and there were cases of individual mice death or not developing diarrhea.)

CN1CCN(c2ccc(Nc3ncc4cc5n(c4n3)C3(CCCCC3)CNC5=O)nc2)CC1 [Compound I hydrochloride, Trilaciclib dihydrochloride]
Relative remission rate (%) ([1]; Example 242, Fluorouracil (5-Fu) intravenous injection 250 mg/kg single, 0.5 h before chemotherapeutic agent): 30% | Relative remission rate (%) ([1]; Example 243, Fluorouracil (5-Fu) intravenous injection 250 mg/kg single, 4 h before chemotherapeutic agent): 50% | Relative remission rate (%) ([1]; Example 244, Fluorouracil (5-Fu) intravenous injection 250 mg/kg single, 8 h before chemotherapeutic agent): 70% | Relative remission rate (%) ([1]; Example 245, Fluorouracil (5-Fu) intravenous injection 250 mg/kg single, 12 h before chemotherapeutic agent): 60% | Relative remission rate (%) ([1]; Example 271, Oxaliplatin intraperitoneal injection 25 mg/kg single, 0.5 h before chemotherapeutic agent): 30% | Relative remission rate (%) ([1]; Example 272, Oxaliplatin intraperitoneal injection 25 mg/kg single, 4 h before chemotherapeutic agent): 40% | Relative remission rate (%) ([1]; Example 273, Oxaliplatin intraperitoneal injection 25 mg/kg single, 8 h before chemotherapeutic agent): 50% | Relative remission rate (%) ([1]; Example 274, Oxaliplatin intraperitoneal injection 25 mg/kg single, 12 h before chemotherapeutic agent): 50% | Relative remission rate ([2]; Ex 27, 5-Fu 125 mg/kg intraperitoneal single, compound 100 mg/kg intravenous single 0.5 h before, cycle 10 days): 50% | Relative remission rate ([2]; Ex 28, 5-Fu 125 mg/kg intraperitoneal single, compound 100 mg/kg intravenous single 2 h before, cycle 10 days): 70% | Relative remission rate ([2]; Ex 29, 5-Fu 125 mg/kg intraperitoneal single, compound 100 mg/kg intravenous single 4 h before, cycle 10 days): 70% | Relative remission rate ([2]; Ex 30, 5-Fu 125 mg/kg intraperitoneal single, compound 100 mg/kg intravenous single 12 h before, cycle 10 days): 60% | Relative remission rate ([2]; Ex 48, 5-Fu 125 mg/kg intraperitoneal single, compound 150 mg/kg intraperitoneal single 0.5 h before, cycle 10 days): 30% | Relative remission rate ([2]; Ex 49, 5-Fu 125 mg/kg intraperitoneal single, compound 150 mg/kg intraperitoneal single 2 h before, cycle 10 days): 50% | Relative remission rate ([2]; Ex 50, 5-Fu 125 mg/kg intraperitoneal single, compound 150 mg/kg intraperitoneal single 4 h before, cycle 10 days): 60% | Relative remission rate ([2]; Ex 51, 5-Fu 125 mg/kg intraperitoneal single, compound 150 mg/kg intraperitoneal single 12 h before, cycle 10 days): 40% | Relative remission rate ([2]; Ex 78, Oxaliplatin 20 mg/kg intraperitoneal single, compound 150 mg/kg intraperitoneal single 0.5 h before, cycle 8 days): 20% | Relative remission rate ([2]; Ex 79, Oxaliplatin 20 mg/kg intraperitoneal single, compound 150 mg/kg intraperitoneal single 6 h before, cycle 8 days): 60% | Relative remission rate ([2]; Ex 80, Oxaliplatin 20 mg/kg intraperitoneal single, compound 150 mg/kg intraperitoneal single 12 h before, cycle 8 days): 40%
